# Binding screen against folded nucleic acids

From ROBIN, a set of small-molecule microarray screens (doi:10.1002/anie.202211358).

Targets, with sequences 5′ to 3′:
T1: SAM-II riboswitch RNA pseudoknot, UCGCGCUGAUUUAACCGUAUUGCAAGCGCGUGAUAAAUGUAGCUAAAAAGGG. Hit rate about 1% of about 21,000 compounds.
T2: TPP riboswitch RNA three-way junction, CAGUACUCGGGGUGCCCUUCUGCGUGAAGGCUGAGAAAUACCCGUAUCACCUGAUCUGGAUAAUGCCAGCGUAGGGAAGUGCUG. Hit rate about 0.7% of about 24,000 compounds.
T3: PreQ1 riboswitch RNA pseudoknot, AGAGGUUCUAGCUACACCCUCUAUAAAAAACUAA. From B. subtilis. Hit rate about 0.7% of about 24,000 compounds.

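Each compound is printed as two spots on a slide made to bind it covalently, so it has no test concentration; the read-out is fluorescence of the bound, labelled oligonucleotide. For the PreQ1, TPP and SAM-II riboswitches the laboratory earlier reported (doi:10.1038/s41467-019-09493-3) 1 µM RNA, 2 h, and a rule that included a mean Z-score above 3 (spot signal-to-noise against the whole library), a score well above that on a control array, and duplicate spots agreeing (coefficient of variation under 100). The data file gives only the calls; its cut-offs may differ, and compounds hitting several targets are kept. The calls come from the array alone, and fixing a compound to the slide can hide its binding.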 A compound is marked hit if it was called a hit and none if it was screened but was not. The compounds are a random part of those screened. A dash means that no call is listed here.

SMILES,T1,T2,T3
Nc1nonc1C(=O)NCCNCc1ccccc1Cl,none,none,none
Cn1c(=O)n(C)c2cc(CNCCc3ccc(F)cc3)ccc21,-,none,none
Nc1nc(N)c(N=O)c(OCC2CCCCC2)n1,none,none,none
Cc1c(Cl)cccc1-c1ccc(CNCCCN2CCOCC2)o1,-,none,none
CNC(=O)Oc1ccc(N(C)C)cc1C(C)C,none,none,none
CCOC(=O)c1cnn(-c2ccc3nncn3n2)c1N,none,none,none
COc1ccc(C2=C(C)C(NCc3ccccc3OC)=NS2(=O)=O)cc1,-,none,none
CCOC(=O)C1(C)C=C(Nc2ccc(OCC)cc2)C(=O)N1c1ccccc1 (stereo not given),none,none,none
CCCC=Cc1cc(N2CCOCC2)nc(N)n1,none,none,none
O=C(C1CNCCO1)N1CCOc2c(O)cc(-c3ccc(Cl)cn3)cc2C1 (stereo not given),none,none,none
OC1(CNCc2cccs2)CNCCOC1 (stereo not given),none,none,none
Clc1nc2nc3n(c2nc1Cl)CCC3,none,none,none
O=C(O)c1ccc(NC2SC(=O)N(c3ccccc3)C2=O)cc1 (stereo not given),none,none,none
CCOc1ccc([C@H]2C[C@@H](c3ccc(Cl)cc3)Nc3nc(N)nn32)cc1,none,none,none
CSc1cccc(CN(C)C(=O)c2cccc(C3CCCNC3)c2)c1 (stereo not given),none,none,none
CCOC(=O)c1cnn(-c2cc(C)nc3c(-c4ccccc4)cnn23)c1N,-,none,none
CCOC(=O)c1ccc(Nc2ncnc3ccccc23)cc1,none,none,none
CCn1c(C2CCCNC2)nn(Cc2nc(CCOC)no2)c1=O (stereo not given),none,none,none
O=C1Nc2ccccc2NC12CCN(Cc1ccc3c(c1)OCO3)CC2,none,none,none
CC(=O)Nc1nc(=O)c(CCC2OCCO2)c(C)[nH]1,none,none,none
O=C(c1ccccc1-n1cncn1)N1CCC(C(O)Cc2ccccc2)CC1 (stereo not given),none,none,none
COc1ccc2c(c1)OC[C@]1(CO)CN(Cc3ccc(C)s3)C[C@H]21,none,none,none
COc1ccc(-c2nc(C(=O)N3CCN(CCO)CC3)nn2-c2ccccc2Cl)cc1,-,none,none
CC(=O)c1cccc(NCc2ccccc2-c2nnc(-c3ccccc3)o2)c1,none,none,none
CCC(CO)Nc1nc2c(c(=O)n(C)c(=O)n2C)n1C (stereo not given),none,none,none
Cc1ccc(OCCNCC2(O)CCCNC2)cc1C (stereo not given),none,none,none
CCOc1ccc2[nH]c(NCCCO)nc2c1,none,none,none
Cn1cc(SCC(=O)N[C@@H]2CCNC[C@H]2O)c2ccccc21,none,none,none
CCNC(=O)[C@@H]1C[C@H](NC(=O)CO)CN1C(=O)Cn1cnc(C)c1C,none,none,none
NNC(=O)CNC(=O)Nc1nnc(S)s1,none,none,none
OC(CN1CCC(Cc2ccccc2)CC1)c1c[nH]c2ccc(F)cc12 (stereo not given),-,none,none
Cc1cc(Cl)ccc1NCC(=O)NN,none,none,none
Cc1cc(C(F)(F)F)nc(CNCC2(O)CCCNC2)n1 (stereo not given),none,none,none
Cc1ncc(-c2ccnc(Nc3ccc(S(C)(=O)=O)cc3)n2)n1C(C)C,none,none,none
O=C(CO)N1CCc2[nH]nc(-c3cccc(F)c3)c2C1,none,none,none
Cc1cc(N)n(CC(=O)N2CCC(c3nnc(Cn4cccn4)n3C)CC2)n1,none,none,none
CCCc1nc(Nc2nc3ccccc3o2)ncc1C(=O)OCC,none,none,none
Cc1ccc(S(=O)(=O)c2cnc3ccccc3c2NCc2ccc(F)cc2)cc1,-,none,none
C[C@]12CC[C@@H]3c4ccc(OC(=O)N(CCCl)CCCl)cc4CC[C@H]3[C@@H]1CC[C@@H]2O,none,none,none
CC(C)CCN[C@H]1CS(=O)(=O)C[C@@H]1S(=O)(=O)c1ccccc1,-,none,none
O=C(C1CC1)N1CCN(c2nc(NC3CCCC3)c3ccccc3n2)CC1,none,none,none
CC(CNc1nc2ccc(Cl)cc2n2cnnc12)c1ccccc1 (stereo not given),-,none,none
CCc1ccc(Nc2nc(N)c3ccccc3n2)cc1,none,none,none
COc1ccc(C(=O)C2CCCN(c3nc(N)nc4[nH]cnc34)C2)c(C)c1 (stereo not given),none,none,none
COc1cc(C)c(CNCCc2ccc(OC)c(OC)c2)cc1C,none,none,none
CC1CC(C)(C)Nc2ccc(OC(=O)CN3C(=O)c4ccccc4C3=O)cc21 (stereo not given),none,none,none
Cc1ccc(NC(=O)c2nccnc2CO)cc1Cl,none,none,none

5 of the entries, repeated:

SMILES,T1,T2,T3
Cn1c(=O)n(C)c2cc(CNCCc3ccc(F)cc3)ccc21,-,none,none
O=C(c1ccccc1-n1cncn1)N1CCC(C(O)Cc2ccccc2)CC1 (stereo not given),none,none,none
CCC(CO)Nc1nc2c(c(=O)n(C)c(=O)n2C)n1C (stereo not given),none,none,none
CCc1ccc(Nc2nc(N)c3ccccc3n2)cc1,none,none,none
CSc1cccc(CN(C)C(=O)c2cccc(C3CCCNC3)c2)c1 (stereo not given),none,none,none